For at least one entry, the source does not settle the construct or the ends of the probe. The comparison behind a weaker result is the experiment's own reference, which may not be listed here. At least one verdict was read from the data and is not stated in words by the source. Tags and fusion partners may be left off the protein sequences shown.
Molecular target: T1, DExH15 (Arabidopsis thaliana) (UniProt B9DFG3)
T1 sequence (looked up): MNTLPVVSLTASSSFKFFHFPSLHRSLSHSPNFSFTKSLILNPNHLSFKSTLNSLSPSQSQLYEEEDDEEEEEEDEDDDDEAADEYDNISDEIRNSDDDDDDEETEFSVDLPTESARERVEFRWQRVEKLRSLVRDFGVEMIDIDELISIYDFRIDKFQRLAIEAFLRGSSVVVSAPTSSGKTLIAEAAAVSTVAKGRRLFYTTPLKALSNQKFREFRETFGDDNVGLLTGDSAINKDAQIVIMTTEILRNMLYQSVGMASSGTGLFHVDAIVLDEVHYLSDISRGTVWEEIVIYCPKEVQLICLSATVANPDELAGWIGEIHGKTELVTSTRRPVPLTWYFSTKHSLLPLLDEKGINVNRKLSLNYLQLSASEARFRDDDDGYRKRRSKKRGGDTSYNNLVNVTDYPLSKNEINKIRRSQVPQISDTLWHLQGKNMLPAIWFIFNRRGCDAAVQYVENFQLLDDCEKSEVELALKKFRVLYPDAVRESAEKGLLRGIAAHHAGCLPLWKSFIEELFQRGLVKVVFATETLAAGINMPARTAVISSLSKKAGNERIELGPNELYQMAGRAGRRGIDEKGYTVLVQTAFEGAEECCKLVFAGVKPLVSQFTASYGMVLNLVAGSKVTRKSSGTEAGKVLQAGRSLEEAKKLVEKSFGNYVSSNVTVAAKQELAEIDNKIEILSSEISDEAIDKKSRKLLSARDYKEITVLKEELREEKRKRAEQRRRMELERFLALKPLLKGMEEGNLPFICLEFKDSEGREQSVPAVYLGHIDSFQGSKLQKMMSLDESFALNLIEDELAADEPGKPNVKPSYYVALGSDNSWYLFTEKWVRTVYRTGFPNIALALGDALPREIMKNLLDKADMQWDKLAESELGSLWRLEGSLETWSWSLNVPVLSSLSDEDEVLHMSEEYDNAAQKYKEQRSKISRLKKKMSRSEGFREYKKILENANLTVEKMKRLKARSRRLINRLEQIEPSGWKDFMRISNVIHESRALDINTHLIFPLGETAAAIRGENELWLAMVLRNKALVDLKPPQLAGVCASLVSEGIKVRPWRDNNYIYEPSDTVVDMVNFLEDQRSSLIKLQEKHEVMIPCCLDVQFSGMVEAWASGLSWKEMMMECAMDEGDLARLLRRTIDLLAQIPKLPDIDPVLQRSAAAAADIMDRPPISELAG
Experiment: MST
Conditions: 3' tail rG4 preferred, EC50 only in figure; MST: 20 nM FAM-RNA; recombinant protein; residues 1-1171; protein details: 6xHis-SUMO removed; label: 5'-FAM

## UUUUUUUUUUUUUUUGGGAGGGAAGGGGAAGGGG [SG4 (5' tail rG4)]
  binding result: binds more weakly

Reference: article PMC9293640, “Insights into the structural dynamics and helicase-catalyzed unfolding of plant RNA G-quadruplexes”
